Results on 2 molecules are retold here after patent US20240400696A1.

Substitutions are numbered along the chain they refer to. Results are given in words; binding and its absence hold for the method and conditions named. Binding seen in cells or lysates may run through a third protein. Some binding calls cover weakened binding; strength is not graded here.

In the assay the target is human EGFR (human) (UniProt P00533). As to the kind of experiment: human-EGFR bead pull-down, pooled library, MS.

B1: AC2884 (EGFR.36/CD3.23 paTCE) (bispecific antibody)
scFv 1: DIQMTQSPSSLSASVGDRVTITCQASQDISNYLNWYQQKPGKAPKLLIYDASNLETGVPSRFSGSGSGTDFTFTISSLQPEDIATYYCQHFDHLPLAFGQGTKVEIKGATPPETGAETESPGETTGGSAESEPPGEGQVQLQQWGAGLLKPSETLSLTCAVYGGSVSSGDYYWTWIRQPPGKGLEWIGHIYYSGNTNYNPSLKSRVTISVDTSKNQFSLKLSSVTAADTAVYYCARDRVTGAFDIWGQGTLVTVSS
scFv 2: ELVVTQEPSLTVSPGGTVTLTCRSSNGAVTSSNYANWVQQKPGQAPRGLIGGTNKRAPGTPARFSGSLLGGKAALTLSGVQPEDEAVYYCALWYPNLWVFGGGTKLTVLGATPPETGAETESPGETTGGSAESEPPGEGEVQLLESGGGIVQPGGSLKLSCAASGFTFNTYAMNWVRQAPGKGLEWVARIRSKYNNYATYYADSVKDRFTISRDDSKNTVYLQMNNLKTEDTAVYYCVRHENFGNSYVSWFAHWGQGTLVTVSS
For B1, the binding entry was “binds”.

B2: AC2896 (EGFR.48/CD3.23 paTCE) (bispecific antibody)
scFv 1: B1 scFv 1 with F73L, I83F
scFv 2: B1 scFv 2
As for B2, the binding entry is reported as “binds”.
